Measurements as given in publication PMC11948025.
Positions count from the first letter of the chain named. Names may count otherwise. These are yes or no findings as the source states them, for the method shown. Binding seen in cells or lysates may run through a third protein. Some results given as binding are weak or reduced against the parent protein; the word gives no strength. For part of these data: Where a sequence is shown, tags or fusion partners need not be part of it. Values belong to the binder of their own block, whether it stands above or below them.

Legend:
[1] = target: T1, NNMT-HA (nicotinamide N-methyltransferase) (human) (UniProt P40261); assay: co-IP; tagged proteins co-expressed in HEK293T cells; IP lysis buffer (20 mM Tris-HCl pH 7.4, 137 mM NaCl, 0.5% NP-40, 0.5 mM EDTA); Flag beads or GFP antibody with protein A/G agarose; immunoblot
T1 sequence: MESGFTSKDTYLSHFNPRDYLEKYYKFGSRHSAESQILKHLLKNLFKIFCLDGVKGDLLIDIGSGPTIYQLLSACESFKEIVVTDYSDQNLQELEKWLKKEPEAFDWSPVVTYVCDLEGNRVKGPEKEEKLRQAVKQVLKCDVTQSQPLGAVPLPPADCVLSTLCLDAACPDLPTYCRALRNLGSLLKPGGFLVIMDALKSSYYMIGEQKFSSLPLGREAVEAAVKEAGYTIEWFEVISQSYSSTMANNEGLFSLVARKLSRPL

[2] = target: T2, NNMT-GFP, full length (human) (UniProt P40261); assay: as above
T2 sequence: T1 sequence

[3] = target: T3, endogenous NNMT (SKOV3, A2780) (human (endogenous in SKOV3 and A2780)) (UniProt P40261); assay: co-IP; endogenous proteins in SKOV3 and A2780 cells, reciprocal IP, immunoblot
T3 sequence: T1 sequence

[4] = target: T2, NNMT-GFP, full length (human); assay: co-IP; NNMT-GFP co-expressed with TRIM56-Myc and/or PRDX6-Flag in A2780 cells, MG132 treatment, IP with GFP antibody, immunoblot

binding [1]: binds
binding [2]: binds
B1: PRDX6-Flag (wild-type peroxiredoxin 6) (enzyme, UniProt P30041 1-224)
chain: MPGGLLLGDVAPNFEANTTVGRIRFHDFLGDSWGILFSHPRDFTPVCTTELGRAAKLAPEFAKRNVKLIALSIDSVEDHLAWSKDINAYNCEEPTEKLPFPIIDDRNRELAILLGMLDPAEKDEKGMPVTARVVFVFGPDKKLKLSILYPATTGRNFDEILRVVISLQLTAEKRVATPVDWKDGDSVMVLPTIPEEEAKKLFPKGVFTKELPSGKKYLRYTPQP

binding [3]: binds
B2: endogenous PRDX6 (enzyme, UniProt P30041 1-224)
chain: B1 chain

binding [2]: binds
B3: PRDX6-MUT (C47S/S32A/D31A), enzymatically dead mutant of PRDX6 (enzyme, UniProt P30041 1-224)
chain: B1 chain with D31A, S32A, C47S

binding [2]: binds
binding [4]: binds
B4: TRIM56-Myc (enzyme, UniProt Q9BRZ2 1-755)
chain: MVSHGSSPSLLEALSSDFLACKICLEQLRAPKTLPCLHTYCQDCLAQLADGGRVRCPECRETVPVPPEGVASFKTNFFVNGLLDLVKARACGDLRAGKPACALCPLVGGTSTGGPATARCLDCADDLCQACADGHRCTRQTHTHRVVDLVGYRAGWYDEEARERQAAQCPQHPGEALRFLCQPCSQLLCRECRLDPHLDHPCLPLAEAVRARRPGLEGLLAGVDNNLVELEAARRVEKEALARLREQAARVGTQVEEAAEGVLRALLAQKQEVLGQLRAHVEAAEEAARERLAELEGREQVARAAAAFARRVLSLGREAEILSLEGAIAQRLRQLQGCPWAPGPAPCLLPQLELHPGLLDKNCHLLRLSFEEQQPQKDGGKDGAGTQGGEESQSRREDEPKTERQGGVQPQAGDGAQTPKEEKAQTTREEGAQTLEEDRAQTPHEDGGPQPHRGGRPNKKKKFKGRLKSISREPSPALGPNLDGSGLLPRPIFYCSFPTRMPGDKRSPRITGLCPFGPREILVADEQNRALKRFSLNGDYKGTVPVPEGCSPCSVAALQSAVAFSASARLYLINPNGEVQWRRALSLSQASHAVAALPSGDRVAVSVAGHVEVYNMEGSLATRFIPGGKASRGLRALVFLTTSPQGHFVGSDWQQNSVVICDGLGQVVGEYKGPGLHGCQPGSVSVDKKGYIFLTLREVNKVVILDPKGSLLGDFLTAYHGLEKPRVTTMVDGRYLVVSLSNGTIHIFRVRSPDS
